The values are deposited in ChEMBL (CHEMBL3988442, “University of Dundee, Small-Polar-MMV Screening Library” (2021)).

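Whole-parasite assay of Trypanosoma brucei over 72 hours; the read-out is not stated. Tested at 10 µM. The record gives no direction; compounds that gave an IC50 in retests scored well above the rest, so higher reads as stronger inhibition. Values scatter widely below zero; nearly all retest evidence comes from the higher of the two concentrations used. About 2,700 compounds were tested under these conditions; 0.51% (about 14) showed 50% or more at least once.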

Values are the deposited “Percent Effect”, in %.
How 0% and 100% were set is not recorded. Most values in the screen are low, and negative values occur.
This is an unselected part of the compounds tested.

structure	effect
CCn1ccnc1CN1CCCN(C(=O)Cc2ccc(F)cc2)CC1	-13.46%
OC(COc1ccc(F)cc1)CN1CCC(c2ccn[nH]2)CC1 (centres unmarked)	90.5%
Cc1nc(C)n(C2CCCN(C(=O)c3ccc(CN(C)C)cc3)C2)n1 (centres unmarked)	-50.61%
Cc1nn(C)c(N(C)C)c1CNCc1ccnc(N2CCCC2)c1	2.789%
CS(=O)(=O)NC1CCCN(C(=O)COCc2ccccc2)C1 (centres unmarked)	-68.23%
Cc1cccc(OCCNC(=O)CN2CCN(C)CC2C)c1 (centres unmarked)	-103.3%
c1ccc(-c2ccc(CN3CCOC(Cn4cncn4)C3)cc2)cc1 (centres unmarked)	-13.17%
N#Cc1cn(C2CC2)c(=O)n(CC(O)c2ccc(F)cc2)c1=O (centres unmarked)	-3.332%
CC(C)c1nc(C2CCCN2C(=O)c2ccc(C#N)cn2)no1 (centres unmarked)	-70.83%
Cc1cnn(CC(=O)N2CCC(Nc3ccc(C)nn3)CC2)c1	-31.91%
Cc1nc(C2CCCN2CC(=O)NCCOc2ccc(F)cc2)no1 (centres unmarked)	7.778%
Cc1nc(CN2CCOC(Cn3cccn3)C2)nc2ccccc12 (centres unmarked)	-35.51%
Cc1ccc(C(=O)NC2CCN(C(=O)NCc3ccccn3)CC2)o1	-26.23%
CN1CCCN(C(=O)NCc2cccnc2-n2cccn2)CC1	-3.956%
Cc1ccc(C)c(CS(=O)(=O)CC(=O)NCCCOC(C)C)c1	-59.16%
CNC(=O)CN1CCN(C(=O)c2ccn(C)c(=O)c2)CC1	-33.35%
COCCOc1cccc(CNCc2c(C)nn(C)c2N(C)C)c1	-49.16%
COc1ccc(COCC(O)CNC(=O)c2cc(C)oc2C)cc1 (centres unmarked)	-13.24%
O=C(CN1CCCC(Cn2cncn2)C1)NCc1ccccc1F (centres unmarked)	-12.47%
CCn1cnnc1CNC(=O)N1CCN(CCc2ccccc2)CC1	-48.3%
Cc1cc(C)n(CC2CCCCN2CCc2ccncc2)n1 (centres unmarked)	-12.45%
Cc1ccc(OCCN(C)C(C)c2cccc(S(N)(=O)=O)c2)cc1 (centres unmarked)	-50.64%
Cc1ccc(-c2nc(CCNC(=O)NC3CCC(O)CC3)co2)cc1 (centres unmarked)	-4.374%
CC(C)c1cnc(CN(C)C2CCN(CCc3cnn(C)c3)C2)o1 (centres unmarked)	-13.17%
Cc1ccc(NC2CCN(C(=O)c3c(C)nn(C)c3Cl)CC2)nn1	-25.2%
O=S(=O)(CCN1CCCC1Cn1cncn1)c1ccccc1 (centres unmarked)	-44.16%
Cc1cnn(CC2CN(CCc3cccs3)CCO2)c1 (centres unmarked)	-23.34%
CCc1nc(CN2CCCC(NCc3nc(C)c(C)o3)C2)no1 (centres unmarked)	-47.78%
O=C(NC1CC1)C1CCN(c2snc3ccccc23)CC1	-52.13%
Cc1cc(C)n(CCN2CCOC(CNc3cccnn3)C2)n1 (centres unmarked)	-43.12%
COc1ccc(C)cc1CC(=O)NS(=O)(=O)c1ccc(C(N)=O)cc1	-41.59%
CC(C)N(C)CC(=O)N(C)C(c1cccc(F)c1)c1ccccn1 (centres unmarked)	-45.5%
CC(=O)N1CCCC1C(=O)NCCOc1c(C)cccc1C (centres unmarked)	-33.84%
Cc1cnn(C2CCCN(C(=O)Cc3ccc4c(c3)CCO4)C2)c1 (centres unmarked)	-47.69%
Cc1nc(CN(C)C2CCN(Cc3nnc(C4CC4)o3)C2)no1 (centres unmarked)	-25.08%
COc1ncccc1CNC(=O)c1c(C)oc(C)c1C	-42.19%
CN(CC(=O)N1CCCCC1c1nc(C(C)(C)C)cs1)C1CC1 (centres unmarked)	-34.3%
Cc1cnn(CCNCC(=O)NCC2(c3ccccc3)CC2)c1	-66.85%
Cc1nc(C2CCCN(C(=O)CCCn3cccn3)C2)sc1C (centres unmarked)	-65.2%
CSc1ccc(C)c(C(=O)N2CCCC(n3cncn3)C2)c1 (centres unmarked)	-37.18%
CCNC(=O)N(C)C(c1ccccc1)c1ccccn1 (centres unmarked)	-36.01%
CN(Cc1ccccn1)CC1CCCN1c1cccnn1 (centres unmarked)	-44.63%
Cc1nc(CN(C)C2CCN(Cc3ccc4c(c3)CCC4)C2)no1 (centres unmarked)	-64.07%
Cc1ccc(F)c(C(=O)N2CCC(Nc3ccc(C)nn3)CC2)c1	0.02751%

The last 4 entries again:

{"structure": "CCNC(=O)N(C)C(c1ccccc1)c1ccccn1", "stereo": "centres unmarked", "effect": -36.01}
{"structure": "CN(Cc1ccccn1)CC1CCCN1c1cccnn1", "stereo": "centres unmarked", "effect": -44.63}
{"structure": "Cc1nc(CN(C)C2CCN(Cc3ccc4c(c3)CCC4)C2)no1", "stereo": "centres unmarked", "effect": -64.07}
{"structure": "Cc1ccc(F)c(C(=O)N2CCC(Nc3ccc(C)nn3)CC2)c1", "effect": 0.02751}